## Primary screen of a compound library

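Phenotypic screen: M. tuberculosis growth, cholesterol and DPPC medium, 4 days; the read-out is not stated. Concentration: 50 µM. Higher reads as more growth inhibition (inferred: compounds with an IC50 in retests scored well above the rest). Of about 69,000 compounds tested this way, about 370 (0.54%) reached 50% or more in at least one test.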

Values are the deposited “Percent Effect”, in %. The controls that fix the scale are not given in the record; negative values are as filed. The compounds are a random part of those screened. Two or more numbers in one place are separate tests of the same structure; such repeats can differ widely.

| structure | effect |
|---|---|
| `CC(=O)N1CCC(c2nc(Cc3ccccc3)no2)C1` (centres undefined) | 7.481% |
| `NC(=O)Nc1cc(F)ccc1SCC(F)F` | 23.46% |
| `Cc1cc(C)n(C2CCCN(C(=O)c3cc(C4CC4)on3)C2)n1` (centres undefined) | 10.92% |
| `CC(C)c1nnc(NCCS(C)(=O)=O)s1` | 3.336% |
| `COc1cccc2c1N(S(=O)(=O)c1cc(C(=O)O)cs1)CCC2` | -26.85% |
| `O=C([C@@H]1Cc2[nH]cnc2CN1CC1CC1)N1CCCC1` | 17.43% |
| `C[C@@H]1CN(S(=O)(=O)N2CCOCC2)C[C@@]1(O)C1CC1` | 0.8722% and -12.16% |
| `Cc1ccc(N2CCC(N3C[C@@H](CN(C)C)[C@@H](CO)C3)CC2)cc1` | 8.218% |
| `CCc1ncc2c(n1)CN(c1cc(N3CCN(C)CC3)nc(N)n1)C2` | -22.89% |
| `Cc1c(C(=O)N[C@H]2CN(CCS(C)(=O)=O)C[C@@H]2C2CC2)cnn1C` | 12.72% |
| `[H][C@@]12COC[C@@H](Cc3nc(C)no3)[C@]1([H])CN(c1cc(OC)ncn1)C2` | 10.25% |
| `Cc1nc(CNCC(O)COc2ccc3c(c2)OCO3)cs1` (centres undefined) | -7.828% |
| `Cc1cc(Cl)ccc1S(=O)(=O)NCC(C)N1CCN(C)CC1` (centres undefined) | 1.011% |
| `CCCN(CC(F)F)c1cc(COC)nc2ncnn12` | 12.63% |
| `CCN1Cc2ccccc2CC2(CCN(CC3CCC3)CC2)C1=O` | 7.8% |
| `O=C(c1cccc(Oc2ccccc2)c1)N1CCCC(O)(CO)CC1` (centres undefined) | -7.119% |
| `Cc1nc(C(=O)N2CCc3[nH]nc(Nc4ccccc4)c3C2)co1` | 2.144% and -7.957% |
| `CC(C(=O)NCCc1ccc2c(c1)OCCO2)n1cncn1` (centres undefined) | -21.29% |
| `Cc1ncc(CNc2cnccc2CO)s1` | 4.411% |
| `Cc1cc(NCc2ccc(C#N)cc2)n2nc(C)cc2n1` | 4.332% |
| `Cc1cc(N(C)C)nc(N2CCCC2c2cc(C)on2)n1` (centres undefined) | -13.96% |
| `CCN(CC(=O)Nc1cc(Cl)ccc1C)C(=O)c1cnccn1` | -23.86% |
| `CC(C)(C)C(NC(=O)CCS(C)(=O)=O)c1ccc(F)cc1F` (centres undefined) | -7.714% |
| `O=C(Nc1ccc(-c2csnn2)cc1)N1CCC(N2CCCC2)C1` (centres undefined) | -16.49% |
| `Fc1ccc(OC2CCN(CCn3cncn3)CC2)cc1` | -10.15% |
| `Cn1cc(C(=O)Nc2ccc3c(c2)CN(C(=O)C2CC2)CC3)nn1` | 6.435% |
| `CCOc1cc(=O)n2c(c1C(=O)OCc1ccc(F)cc1)CCCC2` | -0.5906% |
| `CCc1noc(CN(CC)C(=O)c2ccc3ncsc3c2)n1` | -6.93% |
| `CN1C[C@@H](n2cnc(-c3ccccc3)c2-c2c[nH]cn2)C[C@H]1C(=O)O` | -19.53% |
| `CCCN1CCCN(c2ncccc2C(=O)N2CCCCC2)CC1` | 20.41% and 1.491% |
| `CN(C)Cc1cc(C2CCCCN2S(=O)(=O)Cc2ccccc2)nn1C.Cl` (centres undefined) | 7.433% |
| `O=C(Cn1ccc2sccc2c1=O)NCc1ccc2c(c1)OCO2` | -0.4606% |
| `CS(=O)(=O)N1CCCCCC1C1CCN(c2ncccn2)CC1` (centres undefined) | 0.5693% |
| `NC(=O)CN1CCCC(C(=O)N2CCC(Oc3ncccn3)CC2)C1` (centres undefined) | 0.6333% |
| `Cc1noc(CCCc2nc(C3CCOC3)no2)n1` (centres undefined) | 3.416% |
| `CC(C)(NC(=O)Cc1ccccc1F)C(C)(C)C(=O)O` | -5.446% |
| `[H][C@@]12CS(=O)(=O)C[C@]1([H])N(C(=O)c1cc(-c3cccn3C)n[nH]1)CCN2CC` | 17.93% |
| `CC(C)Cc1nc(CN2CCN(CC(O)c3ccccc3)CC2)no1` (centres undefined) | -9.473% |
| `Cc1nn(CCO)cc1CN1CCCC1c1nc2c(C)cccc2[nH]1` (centres undefined) | -10.34% and -8.468% |
| `O=C(NCCCN1CCN(c2ncccn2)CC1)NCC1CCCO1` (centres undefined) | -29.52% |
| `CCC(C)(N)c1nc(=O)c(C(C)C)c(C)[nH]1.Cl` (centres undefined) | -5.156% |
| `CN(C)Cc1nc(C(C)(C)NC(=O)C2CC(=O)N(CC3CC3)C2)no1` (centres undefined) | -16.3% |
| `CSCC[C@@H](CO)Nc1nc(-c2ccccn2)nc2c1c(C)nn2C` | 2.069% |
| `COc1ccnc(N2CCN(CC(=O)N3CCOC(C)C3)CC2)n1` (centres undefined) | -8.414% |
| `CC(=O)Nc1nc2c(s1)C(C)(C)Nc1ccccc1S2` | -16.8% |
| `Cc1cccnc1C(Cc1ccsc1)NC(=O)Cn1cccnc1=O` (centres undefined) | -8.622% |
| `Cc1cccc(Nc2nccnc2C2CCCN2CC(=O)N(C)C)n1` (centres undefined) | -2.231% |
| `CCC(Nc1ncnc2sc(C(=O)O)c(C)c12)c1ccnn1C` (centres undefined) | 9.472% |
| `CN(C)C(=O)C1CCN(Cn2ccc(-c3ccc(F)cc3)n2)CC1` | -3.465% |
| `O=C(O)C(F)(F)F.O=C(O)C(F)(F)F.[H][C@@]12CN(Cc3cccs3)C[C@]1([H])OCCN2CC1CCCO1` (some centres undefined) | -5.386% |
| `CC1CCC(O)(Cn2ncnc2-c2cccc(C#N)c2)CC1` (centres undefined) | 1.342% |
| `O=C(NCCCNC(=O)c1cccc(O)c1)NCc1ccccc1F` | -3.354% |
| `Cc1n[nH]c(C)c1NC(=O)NCc1ccccn1` | -7.49% |
| `COc1ccc(CN2CCOC(CCc3ccnc(N)c3)C2)cc1` (centres undefined) | 13.9% |
| `Cc1cnc2c(S(=O)(=O)N(C)C3CCS(=O)(=O)C3)cccc2c1` (centres undefined) | -5.113% |
| `O=C1C(NCc2ccccc2O)CCN1Cc1ccccc1` (centres undefined) | -6.347% |
| `O=C(c1cc(C2CC2)on1)N1CC[C@]2(C[C@H](Oc3cccnc3)CO2)C1` | -5.008% |
| `Cl.Cl.[H][C@@]12CN(CCc3ccccc3)C[C@]1([H])C2CN` (some centres undefined) | -20.15% |
| `O=C(O)C(F)(F)F.O=C(O)C(F)(F)F.O=C(O)C(F)(F)F.[H][C@]12CCN(Cc3ccccn3)[C@@]1([H])CC[C@H](COCc1ccccn1)O2` | 3.2% and -7.763% |
| `CCC(C)NC(=O)c1sccc1-n1cnnn1` (centres undefined) | -12.87% |
| `O=C(O)C(F)(F)F.O=C(O)C(F)(F)F.O=C(O)C(F)(F)F.[H][C@]12C[C@H](C(=O)NCC3CC3)N(C)[C@@]1([H])CN(Cc1csc(C)n1)C2` | -10.78% and -12.94% |
| `CCS(=O)(=O)Cc1nnnn1-c1ccccc1` | -2.669% |
| `[H][C@@]12CS(=O)(=O)C[C@]1([H])N(C(=O)c1ccc3nc(C)oc3c1)CCN2CCC` | -6.628% |
| `CC(C)Oc1ncccc1CNC(=O)N1CCC(C(N)=O)C1` (centres undefined) | -10.32% |
| `CC(C)CS(=O)(=O)Nc1ccc2c(c1)OCC(C)(C)C(=O)N2C` | -40.28% |
| `CC(C)C(C(=O)N1CCC2(CC1)CN(C)C(=O)O2)c1ccccc1` (centres undefined) | 1.814% |
| `Cc1ccccc1N1CC2(CCN(S(=O)(=O)C3CC3)C2)CC1=O` (centres undefined) | -1.76% |
| `Cn1ncnc1-c1ccnc(NCCCc2ccncc2)n1` | -4.359% |
| `CCCOCC(=O)N1CCC2(CC1)c1nc[nH]c1CCN2S(C)(=O)=O` | -2.017% and -7.3% |
| `Cc1cc(C(=O)NCCc2c(C)nn(C)c2C)nc(N2CCCCC2)n1` | 1.412% |
| `O=C(OCc1ccccc1)C1CCCN1Cc1nc(C2CC2)no1` (centres undefined) | 10.86% |
| `CC(NS(=O)(=O)CCc1ccccn1)c1ccccc1Br` (centres undefined) | -19.6% |
| `[H][C@@]12CN(C(=O)c3ccoc3)C[C@]1([H])CN(c1ncccn1)C2` | 9.361% |
| `Cc1cccc(C(=O)NCCS(=O)(=O)Cc2ccccc2)c1` | -30.4% |

Some entries from above, unchanged:

| structure | effect |
|---|---|
| `Cc1n[nH]c(C)c1NC(=O)NCc1ccccn1` | -7.49% |
| `CCN(CC(=O)Nc1cc(Cl)ccc1C)C(=O)c1cnccn1` | -23.86% |
| `O=C([C@@H]1Cc2[nH]cnc2CN1CC1CC1)N1CCCC1` | 17.43% |
| `CCOc1cc(=O)n2c(c1C(=O)OCc1ccc(F)cc1)CCCC2` | -0.5906% |
| `CN(C)Cc1nc(C(C)(C)NC(=O)C2CC(=O)N(CC3CC3)C2)no1` (centres undefined) | -16.3% |

Data taken from ChEMBL document CHEMBL3988442, “University of Dundee, Small-Polar-MMV Screening Library” (2021).